# Experimental data taken from patent US6190920A (The Regents of the University of California, priority 1997, dated 2001).
# Some peptides are written in HELM: one residue between dots, names in brackets for other building blocks, links after the first $.
# Experiment: peptide synthesis
# Details: late stage modification step
substance,measurement,value
"PEPTIDE1{[Glm].T.R.S.L.[DR1Tyr].V}$PEPTIDE1,PEPTIDE1,7:R2-2:R3$$$V2.0",step yield,44%
